Laboratory results taken from PubChem BioAssay AID662 (National Center for Advancing Translational Sciences (NCATS), 2007).
Some of the results follow. These are further read-outs of the screen, such as a control signal, another cell line or another target. No call is given for them. Most of these compounds were active or inconclusive in the main read-out, so they are no random draw. The note in brackets gives the kind of curve behind each potency; many fits are weak.

Assay: Cell signaling CRE-BLA (Fsk stim)
Details: CHO CRE-bla reporter (cAMP response element driving beta-lactamase), forskolin EC10, beta-lactamase ratio; measured here: 460 nm blue channel
Summary of the method: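 Using CellSensor CRE-bla CHO cells in Opti-MEM with 0.5% dialyzed FBS, compounds were titrated with EC10 NKH 477 for 3 h at 37 °C. CCF4 ratio (460/530 nm) gave %Activity; AC50 derived.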

| SMILES | AC50 |
| --- | --- |
| CC(=O)NCCNc1ncnc2ccc(-c3ccccc3C)cc12 | 0.398 µM [rising, full curve] |
| CCN(CC)S(=O)(=O)c1ccc(NCc2ccccc2)nc1 | 2.51 µM [rising, full curve] |
| CN(C)c1ccc(C(=C2C=CC(=[N+](C)C)C=C2)c2ccc(N(C)C)cc2)cc1 | 3.16 µM [falling, full curve] |
| O=C(Cn1cnc2ccccc2c1=O)c1c[nH]c2ccccc12 | 25.1 µM [rising, single point] |
| COc1cccc(C(=O)Nc2ccc(N(C)C)cc2)c1OC | 5.01 µM [rising, partial curve] |
| Clc1ccc(-c2ccc(-c3nn4c(-c5ccco5)nnc4s3)o2)cc1 | 10 µM [rising, single point] |
| O=C(CSc1nnc2c(Cl)cc(C(F)(F)F)cn12)Nc1ccc2c(c1)OCO2 | 0.251 µM [falling, partial curve] |
| O=C1c2ccccc2C(=O)N1Cc1nc(-c2ccccc2)no1 | 0.794 µM [rising, single point] |
| COc1ccc(-c2nc3cnc(N4CCNCC4)nc3n(Cc3ccc(F)cc3)c2=O)cc1 | 10 µM [rising, partial curve] |
| Cc1ccc2cc(CCNC(=O)CC(C)C)c(=O)[nH]c2c1 | 6.31 µM [rising, partial curve] |
| Cc1cccc(-n2nc3c(c2NC(=O)c2ccco2)CSC3)c1C | 25.1 µM [falling, single point] |
| Cc1ccc(CNC(=O)c2cn(C3CCCC3)c(=O)c3c2c2ccccc2n3C)o1 | 0.316 µM [falling, partial curve] |
| CCOC(=O)c1c(C)n(C)c2cc(OCCN(CC)CC)ccc12 | 12.6 µM [rising, single point] |
| CC1(C)Oc2ccc3ccc(=O)oc3c2/C(=C/Nc2ccccn2)C1=O | 12.6 µM [rising, partial curve, poor fit] |
| CCN(CC)c1ccc2cc(C(=O)Nc3cccnc3N3CCOCC3)c(=O)oc2c1 | 10 µM [rising, partial curve] |
| N#Cc1cccc(-c2nc3cnc(N4CCOCC4)nc3n(C3CC3)c2=O)c1 | 1.58 µM [rising, full curve] |
| Fc1ccc(-c2nnc3ccc(N4CCc5ccccc5C4)nn23)cc1 | 12.6 µM [rising, partial curve] |
| Cc1nc(SC2CC(=O)N(c3ccccc3)C2=O)nc2c1CCCC2 (configuration not stated) | 12.6 µM [rising, single point] |
| c1ccc(Nc2ncnc3ccc(-c4cccnc4)cc23)cc1 | 10 µM [rising, partial curve] |
| O=C(c1ccc(NS(=O)(=O)c2cccc3cccnc23)cc1)N1CCOCC1 | 10 µM [rising, single point] |
| Cc1cc2cc(CCNC(=O)CC(C)C)c(=O)[nH]c2cc1C | 12.6 µM [rising, partial curve] |
| Cn1c(=O)c2c(nc(SCc3ccccn3)n2C)n(C)c1=O | 5.01 µM [falling, single point] |
| CCC(C)n1cnc2c(c1=O)c1nc3ccccc3nc1n2-c1ccc2c(c1)OCCO2 (configuration not stated) | 7.94 µM [rising, partial curve] |

| SMILES | AC50 |
| --- | --- |
| Cc1cc(NC(=O)c2ccc(S(=O)(=O)N3CCOCC3)cc2)nc2c1c(=O)oc1ccccc12 | 10 µM [rising, partial curve] |
| CC1=CCC(C(C)(C)NC(=O)c2ccccc2)C/C1=N\O (configuration not stated) | 0.316 µM [rising, partial curve] |
| O=C(CSc1nnc(-c2ccco2)n1Cc1ccccc1)OC1CCCCC1 | 20 µM [rising, single point] |
| Cc1cccc(-c2cc3nc4c(c(N5CCC6(CC5)OCCO6)n3n2)CCCC4)c1 | 1.26 µM [rising, full curve, poor fit] |
| COCCN(CCOC)c1nc(C)nc2c1nc(-c1ccccc1)n2CCN1CCOCC1 | 10 µM [rising, partial curve] |
| O=C1C2C3C=CC(CO)(O3)C2C(=O)N1c1ccc(-c2ccccc2)cc1 (configuration not stated) | 25.1 µM [falling, single point] |
| Cc1cc(C)n2nc(SCC(=O)NCc3ccco3)nc2n1 | 0.00316 µM [rising, full curve, poor fit] |
| O=C(NCC12CC3CC(CC(C3)C1)C2)c1cc2n(n1)C(C(F)(F)F)CC(c1ccco1)N2 (configuration not stated) | 12.6 µM [rising, single point] |
| Cn1nc(-c2ccc(Cl)cc2)c2cc(C(=O)NCCCN3CCCC3)sc21 | 12.6 µM [rising, partial curve] |
| CCn1c2ccccc2c2cc(NC(=O)CSc3nnc(-c4ccccc4OC)n3N)ccc21 | 3.98 µM [falling, partial curve] |
| CC1(C)CC(=O)C=C(Nc2ccccn2)C1 | 25.1 µM [falling, single point] |
| COc1ccc(OC)c(C(=O)c2coc3ccc(O)c(CN4CCOCC4)c23)c1 | 3.16 µM [rising, single point] |
| COc1ccc(-c2nnc(SCC#CCO)o2)cc1OC | 1 µM [rising, full curve] |
| Cc1ccc(NCN2C(=O)C3C4C=CC(C4)C3C2=O)cc1 (configuration not stated) | 0.631 µM [falling, full curve, poor fit] |
| O=C(NCCc1ccccc1)C1CCN(S(=O)(=O)N2CCC3(CC2)OCCO3)CC1 | 0.1 µM [falling, full curve, poor fit] |
| c1cnc(N2CCN(c3nc4ccccc4n4cnnc34)CC2)nc1 | 2 µM [rising, full curve] |
| Cc1ccc(NC(=O)CN(C)S(=O)(=O)c2cccc3nsnc23)cc1 | 0.398 µM [falling, partial curve] |
| N#Cc1c(N)c(C(=O)c2ccccc2)n2c1CCCC2 | 0.501 µM [falling, single point] |
| CSc1nc2sc3c(c2c(=O)n1C)CCCC3 | 10 µM [rising, partial curve] |
| CCOC(=O)c1ccc(N2C(=O)c3n[nH]c(C)c3C2c2ccc(OC)c(OC)c2)cc1 (configuration not stated) | 12.6 µM [rising, single point] |
| NC(=O)NC(c1ccccc1)c1ccccc1F (configuration not stated) | 0.02 µM [rising, single point] |
| CCOc1cc2c(cc1OCC)C(C(=O)O)C(c1ccc(OC)c(O)c1)N(C)C2=O (configuration not stated) | 3.16 µM [falling, full curve, poor fit] |
| O=C(O)c1cccc(S(=O)(=O)Nc2ccccc2Cl)c1 | 0.0501 µM [falling, full curve, poor fit] |

Structures shown so far that have an NH in an aromatic ring, in the order listed:

| SMILES | AC50 |
| --- | --- |
| O=C(Cn1cnc2ccccc2c1=O)c1c[nH]c2ccccc12 | 25.1 µM [rising, single point] |
| Cc1ccc2cc(CCNC(=O)CC(C)C)c(=O)[nH]c2c1 | 6.31 µM [rising, partial curve] |
| Cc1cc2cc(CCNC(=O)CC(C)C)c(=O)[nH]c2cc1C | 12.6 µM [rising, partial curve] |
| CCOC(=O)c1ccc(N2C(=O)c3n[nH]c(C)c3C2c2ccc(OC)c(OC)c2)cc1 (configuration not stated) | 12.6 µM [rising, single point] |

Next part

| SMILES | AC50 |
| --- | --- |
| FC(F)(F)c1nnc2ccc(N3CCOCC3)nn12 | 10 µM [falling, partial curve] |
| CN1CCN(CC(=O)N(Cc2c(C#N)c3ccccc3n2C)c2ccccc2)CC1 | 25.1 µM [rising, single point] |
| Cc1cccc(OCCCC(=O)Nc2ccc3c(c2)OCO3)c1 | 0.00398 µM [falling, full curve] |
| CCOC(=O)C1CN(S(=O)(=O)c2ccc(C)cc2)CCN1S(=O)(=O)c1ccc(C)cc1 (configuration not stated) | 0.631 µM [rising, full curve, poor fit] |
| COc1ccc(OC)c2[nH]c(=O)c(CCNS(=O)(=O)c3ccccc3)cc12 | 1 µM [rising, partial curve] |
| COC(=O)c1ccc(CSc2nc3ccccc3o2)cc1 | 0.00398 µM [falling, full curve, poor fit] |
| Cc1cc(-n2c(C)cc(C(=O)CSc3ccc4c(c3)OCCO4)c2C)no1 | 25.1 µM [falling, single point] |
| Cc1oc(-c2cccc(Cl)c2)nc1CN1CCC(C(=O)NCc2ccco2)CC1 | 5.01 µM [falling, partial curve] |
| O=c1[nH]c2c(s1)C(c1ccccc1)C1C3CCC(C3)C1S2 (configuration not stated) | 10 µM [rising, partial curve] |
| Cc1noc(C)c1CSc1nnc(-c2ccccc2F)n1CCc1ccccc1 | 5.01 µM [falling, single point] |
| CSc1nc(-c2ccccc2O)nc(-c2ccccc2O)n1 | 15.8 µM [rising, single point] |
| CCOC(=O)N1CCC(n2c(SCC(=O)Nc3nccs3)nc3ccsc3c2=O)CC1 | 0.00398 µM [falling, full curve, poor fit] |
| C[C@@H]1C[C@@H]2[C@H]3CCC4=CC(=O)C=C[C@]4(C)[C@]3(F)[C@@H](O)C[C@@]2(C)[C@@]1(O)C(=O)CO | 31.6 µM [falling, single point] |
| CCn1c(SCC(=O)Nc2cc(C)ccc2C)nnc1-c1cnccn1 | 2 µM [rising, full curve] |
| CCOc1ccc(OCC)c(NC(=O)CSc2nc3c(c(=O)n(C)c(=O)n3C)n2CC)c1 | 1.58 µM [rising, full curve] |
| Cc1ccc(OC(=O)c2ccc(C)c(C)c2)cn1 | 0.00794 µM [falling, full curve, poor fit] |
| CSc1nc(N)nc(SCC(=O)c2ccccc2)c1C#N | 12.6 µM [rising, partial curve] |
| c1ccc(-c2nnc3sc(CN4CCc5ccccc54)cn23)cc1 | 12.6 µM [rising, single point] |
| COc1ccc(NC(=O)N2CCC3(CC2)CCN(C(=O)c2cnccn2)CC3)cc1 | 1.58 µM [falling, full curve, poor fit] |
| O=C(Nc1ccccc1)Nc1ccccn1 | 3.16 µM [falling, single point] |
| O=C(Oc1ccc(OC(=O)c2ccncc2)cc1)c1ccncc1 | 0.0126 µM [falling, full curve, poor fit] |
